## Library screening results

Chains of the proteins cited; added tags and fusions are not shown.
UniProt E9BF75, entry or part of it: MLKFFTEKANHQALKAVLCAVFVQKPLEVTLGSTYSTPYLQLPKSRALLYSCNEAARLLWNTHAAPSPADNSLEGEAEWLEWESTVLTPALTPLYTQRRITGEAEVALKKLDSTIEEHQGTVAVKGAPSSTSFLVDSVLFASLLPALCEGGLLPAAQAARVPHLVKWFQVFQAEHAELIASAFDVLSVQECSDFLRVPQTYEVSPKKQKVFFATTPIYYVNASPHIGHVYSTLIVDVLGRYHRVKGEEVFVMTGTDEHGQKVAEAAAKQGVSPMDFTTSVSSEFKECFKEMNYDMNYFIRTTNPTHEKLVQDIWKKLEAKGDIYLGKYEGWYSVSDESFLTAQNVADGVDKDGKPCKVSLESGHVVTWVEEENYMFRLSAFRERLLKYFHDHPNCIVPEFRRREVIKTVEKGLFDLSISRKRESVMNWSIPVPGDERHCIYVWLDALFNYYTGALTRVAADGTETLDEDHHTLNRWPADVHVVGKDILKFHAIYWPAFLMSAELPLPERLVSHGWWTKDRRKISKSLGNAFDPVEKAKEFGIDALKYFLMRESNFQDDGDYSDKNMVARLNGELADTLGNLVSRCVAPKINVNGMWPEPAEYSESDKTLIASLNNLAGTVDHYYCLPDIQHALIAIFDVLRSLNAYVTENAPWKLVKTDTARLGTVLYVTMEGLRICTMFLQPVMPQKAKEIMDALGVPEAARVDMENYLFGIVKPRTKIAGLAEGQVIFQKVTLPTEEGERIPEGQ

The values are deposited in ChEMBL (CHEMBL3988442, “University of Dundee, Small-Polar-MMV Screening Library” (2021)).

Results are percentages, as filed. How 0% and 100% were set is not recorded. Most values in the screen are low, and negative values occur. The compounds are a random part of those screened.

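Methionyl-tRNA synthetase (putative), Leishmania donovani (UniProt E9BF75). Primary screen of methionyl-tRNA synthetase; the read-out is not stated. The test concentration is not given. Values are per cent inhibition. About 68,000 compounds were tested under these conditions; 0.035% (about 24) showed 50% or more at least once.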

structure	inhibition
CC(=O)N1CCC2(CCN(C(=O)c3ccc(F)c(C(F)(F)F)c3)C2)C1 (stereo unspecified)	2.614
CC(C)NC(=O)N1CCC2(CC1)CC[C@@]1(C(=O)N(C)C)CN(C)C[C@@H]21	12.89
Cc1nn(CC(=O)N(C)Cc2nncn2C(C)C)c(=O)c2ccccc12	16.84
COCC(C)N(C)C(=O)NC1CCN(S(C)(=O)=O)CC1 (stereo unspecified)	-0.2674
CCS(=O)(=O)NCC(=O)N(C1CC1)C1Cc2ccccc2C1	10.64
CCCN1C(=O)c2ccccc2C1OC (stereo unspecified)	17.12
Fc1ccc(-c2nc(CNC3CCc4ncnn4C3)co2)cc1 (stereo unspecified)	22.51
CCn1cnnc1CNC(=O)N(C)Cc1ccc(Cl)cc1Cl	-4.076
COCCN(C)C[C@@H]1CN(C(=O)c2c(C)cccc2OC)C[C@@H]1CO	17.73
Cc1cc(-c2cc3nc(C)c(C)c(NCC4COCCO4)n3n2)no1 (stereo unspecified)	9.884
O=c1c2cn[nH]c2nc(SCCN2CCOCC2)n1-c1ccccc1	20
CCC(C)(C)C(=O)N1C[C@@H]2C[C@@H](c3nnc(C)[nH]3)O[C@@H]2C1	2.747
Cc1csc(N2CCN(Cc3ccn(C)c(=O)c3)CC2)n1	11.78
Cc1ncc(CN(C)CCO)c2cc(C(=O)c3ccc(Br)cc3)oc12	14.91
NC(=O)CCC1CCCN(c2ncnc3c2Cc2ccccc2OC3)C1 (stereo unspecified)	12.06
O=C(c1ccsc1)N1CCC2(CCN2Cc2ccc(F)cc2)C1 (stereo unspecified)	13.04
O=C(N1CCOCC1)N1CCC2(CCNC2)C1 (stereo unspecified)	12.78
COc1ccc2nc(C[C@@H]3C[C@@H](C(C)C)[C@H](CN)C=C3C)[nH]c2n1	13.19
Cc1csc(N(C)C(=O)C2CC(=O)N(c3ccccc3F)C2)n1 (stereo unspecified)	5.455
c1ccc2c(c1)CC(N1CCCN(Cc3cccc4nonc34)CC1)C2	6.628
CC(C)(C)n1ncc2c1NC(=O)CC2c1c(F)cccc1F (stereo unspecified)	15.6
Cc1cc(NS(=O)(=O)CC2CCCCO2)ccc1F (stereo unspecified)	6.832
Cc1c(-c2ccccc2)ncn1CCCNc1cccnc1	-13.53
O=C1NCCO[C@H]2CN(C(=O)CC3Cc4ccccc4C3)CC[C@@H]12	16.81
CCc1[nH]ncc1C(=O)N1CCCC(n2cccn2)C1 (stereo unspecified)	20.28
CCN1CC[C@@]2(C(=O)N3CCOCC3)CCN(S(=O)(=O)CC)CC[C@@H]12	3.889
CCOCC1CN(C(=O)C2=CCCC2)Cc2cnn(C)c21 (stereo unspecified)	10.14
CCc1noc(C2CCCCN2C(=O)c2ccoc2C)n1 (stereo unspecified)	12.03
CN(C)c1cc(C(=O)N2CCN(S(C)(=O)=O)CC2)ccn1	9.202
Cn1cccc1C(=O)N1CCCCC1c1[nH]ncc1S(C)(=O)=O (stereo unspecified)	3.529
O=C(c1ccncc1)N1C[C@@H]2CC[C@H](C1)N(C(=O)N1CCOCC1)C2	14.63
Fc1ccc(N2CCN(CCCc3cn[nH]c3)CC2)cc1	0.8475
CN1CC(C(=O)NCc2cccnc2OCc2ccccc2)CC1=O (stereo unspecified)	13.32
Cc1ccsc1CN(c1nc(CCN)nc2ccccc12)C1CC1	11.11
COCCN1CCN(S(C)(=O)=O)Cc2cccnc21	-8.197
Cc1nc(C)n(CC2CCCCN2Cc2cnc(C)s2)n1 (stereo unspecified)	18.52
Cc1ccc(CN2CCc3c(nc4cc(C5CC5)nn4c3O)C2)s1	7.447
C[C@H]1CN(C)C[C@@]12COCCN(C(=O)Cc1ccccc1)C2	9.446
c1cc(-c2ccc(CN3CCC4(CCNCC4)CC3)s2)[nH]n1	4.795
CC(C)(C)n1ncc2c1NC(=O)CC2c1ccsc1 (stereo unspecified)	9.63
c1cnn(CC2CCCN2Cc2nc(-c3ccoc3)no2)c1 (stereo unspecified)	10.49
CC(CCc1ccccc1)CC(=O)NC1CCN(CC(N)=O)CC1 (stereo unspecified)	9.021
O=C(O)C1(Cc2ccc(-c3cccs3)cc2)CCNC1 (stereo unspecified)	-27.02
CCC(O)CN(Cc1cccc(C(=O)N(C)C)c1)c1ccccc1 (stereo unspecified)	11.78
CC(C)c1noc(CCCC(=O)N2CCN(Cc3ccncc3)CC2)n1	7.042
Cn1ccc2ccc(C(=O)N3CCC[C@H]3C(=O)N3CCOCC3)cc21	5.495
CC(C)c1noc(C(C)N2CCC(c3nc4ccccc4o3)CC2)n1 (stereo unspecified)	14.29
N#Cc1ccc(S(=O)(=O)NC(=O)C2CC(c3ccccc3)=NO2)cc1 (stereo unspecified)	7.551
COc1ccc(C(=O)N2CCCS2(=O)=O)cc1	19.94
CSc1ccsc1C(=O)NCCNC(=O)C1CC1	12.53
CC(c1ccncn1)N(C)S(=O)(=O)NCc1ccccc1 (stereo unspecified)	4.444
c1cnnc(N2CCCC2CNCc2nc(-c3ccsc3)no2)c1 (stereo unspecified)	12.88
FC(F)(F)c1cccc(CN2CCOC[C@H](Oc3cccnc3)C2)c1	13.22
CCOCCCNC(=O)C(NC(=O)Cc1cccs1)c1ccccc1 (stereo unspecified)	9.329
COCc1nc2cc(NCc3ncc[nH]3)ccc2o1	12.09
COc1ccccc1C(O)Cn1cc(C(=O)NCc2ccco2)nn1 (stereo unspecified)	19.42
CCOc1ccc(NC(=O)C2OC(c3cccs3)=NN2C(C)=O)cc1 (stereo unspecified)	3.056
O=C(O)c1ccccc1C1CCN(Cc2ccc(-c3cc[nH]n3)o2)C1 (stereo unspecified)	14.02
O=C(Nc1cccnc1)N1CCC(n2ccc(C(F)(F)F)n2)CC1	7.389
Cc1nn(C)c(N(C)C)c1CNCCS(C)(=O)=O	6.733
CCc1nc(CN(C)Cc2nc(-c3ccccc3Cl)oc2C)no1	11.94
CCNc1ncc(C(=O)NCc2csc(-c3ncccn3)n2)cn1	18.43
O=S1(=O)c2ccccc2OCC2(CCN(CCO)CC2)CN1CC1CC1	17.58
O=C(O)c1nc(SCc2ccccc2)ncc1Br	12.74
COc1cc(OC)cc(N2CCC(NCc3cc[nH]n3)C2)c1 (stereo unspecified)	11.46
CCn1cc(NS(=O)(=O)c2ccc(F)cc2)c(C(=O)NCC(C)C)n1	10.53
COc1c(C)cnc(CN2CCOC(Cn3nc(C)nc3C)C2)c1C (stereo unspecified)	7.981
COC(=O)c1cc(NCc2cscn2)ccc1C	9.041
CCN1C(=O)CC(c2cnn(C)c2)C12CCN(C(=O)c1ccoc1)CC2 (stereo unspecified)	-4.762
CC1CN(c2ccc(NC(=O)Cn3cccn3)cc2)CCO1 (stereo unspecified)	11.63
CC(=O)N(C)C1CCCc2nc(C)sc21 (stereo unspecified)	10.51
NC(=O)COc1ccc(CNCc2ccc(F)c(F)c2)cc1	20.35
OC(CNCCn1cccn1)COc1ccc(Br)cc1 (stereo unspecified)	16.67
COC(=O)c1cccc2nc([C@H]3CCN(Cc4ccccc4F)C3)oc12	6.015
CC(C)n1nc(CN2CCCCC2)c2c1CN(C(=O)c1ccno1)C2	8.312
CCN(C)C(=O)NCC1(CN2CCOCC2)CCCCC1	6.789
Cc1nsc(N2CCN(C(=O)Nc3ccc4[nH]ccc4c3)CC2)n1	7.617
CC(C)(C(=O)NCc1ccc(C#N)cc1)n1cc(Br)cn1	13.13
CCN1CCN(Cc2coc(-c3cccc(F)c3)n2)CC1	2.024
c1cncc(CN2CCCC3(COCCN(c4cncnc4)C3)C2)c1 (stereo unspecified)	17.91
N#Cc1cccc(N2CCCC3(CN(C(=O)c4ccc[nH]4)CCO3)C2)c1 (stereo unspecified)	6.62
O=C1NCCN1C1CCN(CCOc2ccccc2Cl)CC1	16.83
O=C(NCCn1ccc(-c2ccncc2)n1)c1ccncc1	7.389
O=C(c1ccccc1)N1C[C@@H]2CCCO[C@@H]2[C@H](N2CCOCC2)C1	14.88
Cc1ccc(C(=O)N2CCCC(CNS(=O)(=O)C(C)C)C2)cc1 (stereo unspecified)	14.38
O=S(=O)(c1ccc(F)cc1Cl)N1CCCC1c1ccncc1 (stereo unspecified)	-15.19
O=C(C[C@@H]1COC[C@H]2CN(Cc3ccccc3)C[C@@H]12)N1CCCC1	22.19

Some entries from above, unchanged:

CC(C)c1noc(CCCC(=O)N2CCN(Cc3ccncc3)CC2)n1 gave 7.042%.
CCc1nc(CN(C)Cc2nc(-c3ccccc3Cl)oc2C)no1 gave 11.94%.
O=C(O)c1nc(SCc2ccccc2)ncc1Br gave 12.74%.
COC(=O)c1cccc2nc([C@H]3CCN(Cc4ccccc4F)C3)oc12 gave 6.015%.
COC(=O)c1cc(NCc2cscn2)ccc1C gave 9.041%.
CCc1[nH]ncc1C(=O)N1CCCC(n2cccn2)C1 (stereo unspecified) gave 20.28%.
CC(C)c1noc(C(C)N2CCC(c3nc4ccccc4o3)CC2)n1 (stereo unspecified) gave 14.29%.
CCOCC1CN(C(=O)C2=CCCC2)Cc2cnn(C)c21 (stereo unspecified) gave 10.14%.
CN1CC(C(=O)NCc2cccnc2OCc2ccccc2)CC1=O (stereo unspecified) gave 13.32%.
CCn1cc(NS(=O)(=O)c2ccc(F)cc2)c(C(=O)NCC(C)C)n1 gave 10.53%.
C[C@H]1CN(C)C[C@@]12COCCN(C(=O)Cc1ccccc1)C2 gave 9.446%.